# For at least one compound, name, drawing or mass did not settle the structure.
# What was measured:
# [1] = test system: brain myelination (myelin water fraction); experiment: Cross-sectional correlation analysis (GLM) of infant formula nutrient composition against brain myelination, measured as MWF by mcDESPOT MRI; assay type: in vivo, human; conditions: children up to 5 years fed different infant formulas; in particular in the visual cortex
# Description: MRI brain scans of infants and children between 0 and 5 years were acquired using a white matter imaging technique. This technique provides a quantitative measure, the Myelin Water Fraction (MWF), which is a surrogate marker of myelin content. When mapped as a function of time across early childhood, myelination trajectories can be generated.
# Infant formula composition: six infant formulas fed to infants participating in study were analyzed for their composition/level of myelin-relevant nutrients.
# Infants included in this study were drawn from a larger longitudinal study of normal brain and behavioral development: the Brown university Assessment of Myelination and Behavior Across Maturation (BAMBAM). To focus on neurotypical development, children with known potential risk factors for learning, neurologic, or psychiatric disorders were specifically excluded during recruitment and enrollment. […]
# Each infant was scanned using the mcDESPOT (multicomponent Driven Equilibrium Single Pulse Observation of T1 and T2) white matter imaging technique Deoni et al. (Magn. Reson. Med. 2008, 60:1372-1387), which provides a quantitative measure of the myelin water fraction (MWF) at each imaging point throughout the brain. […]
# [2] = test system: myelination trajectory in the brain (myelin water fraction); experiment: Longitudinal myelination trajectory (MWF by mcDESPOT MRI) in infants fed formulas with different DHA content vs exclusively breastfed; assay type: in vivo, human; conditions: Formula 2 (low DHA, 43.2 mg/100 g) vs Formula 6 (high DHA, 89.8 mg/100 g); FIG. 1
smiles,measurement,setting,value
"CC/C=C\C/C=C\C/C=C\C/C=C\C/C=C\C/C=C\CCC(=O)O [DHA, docosahexaenoic acid]",association with myelination (myelin water fraction) over time in the brain,[1],significant association with myelination
same,myelination trajectory compared with that provided by feeding exclusively with human breastmilk,[2],"the higher the DHA content in the formula, the closer is the myelination trajectory"

# From patent publication US20180360090A1, “NUTRITIONAL COMPOSITIONS AND INFANT FORMULAS TO PROMOTE MYELINATION IN THE BRAIN” (NESTEC S.A., priority 2015, published 2018)
